Laboratory results published in the supplement of paper PMC3334620.
The full ranking holds about 33,000 sequences; the median of “E-score (-0.5 to 0.5)” is about -0.015, and the highest 2% start at about 0.3. The list shows a part of the results.

Biological target: T1, Abf1 (UniProt P14164)
T1 sequence: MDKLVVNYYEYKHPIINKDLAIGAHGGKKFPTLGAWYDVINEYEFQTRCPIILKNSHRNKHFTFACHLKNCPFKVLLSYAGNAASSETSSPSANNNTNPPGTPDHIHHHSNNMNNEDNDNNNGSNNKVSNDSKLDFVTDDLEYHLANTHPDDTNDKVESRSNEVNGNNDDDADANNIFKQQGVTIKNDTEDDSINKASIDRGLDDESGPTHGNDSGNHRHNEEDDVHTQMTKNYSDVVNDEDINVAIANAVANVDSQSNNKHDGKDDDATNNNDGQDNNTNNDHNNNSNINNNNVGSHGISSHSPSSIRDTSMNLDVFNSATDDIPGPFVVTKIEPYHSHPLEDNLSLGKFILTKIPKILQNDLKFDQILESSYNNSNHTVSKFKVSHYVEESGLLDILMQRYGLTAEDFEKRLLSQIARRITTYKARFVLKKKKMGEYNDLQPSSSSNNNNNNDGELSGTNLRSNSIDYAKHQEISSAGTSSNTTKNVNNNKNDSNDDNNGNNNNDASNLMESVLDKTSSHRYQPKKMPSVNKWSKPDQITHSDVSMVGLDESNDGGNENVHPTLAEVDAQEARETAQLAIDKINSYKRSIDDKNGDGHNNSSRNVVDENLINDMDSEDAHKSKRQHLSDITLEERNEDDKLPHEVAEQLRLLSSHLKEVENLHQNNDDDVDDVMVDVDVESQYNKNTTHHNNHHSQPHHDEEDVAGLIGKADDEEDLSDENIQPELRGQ
Test: PBM E-score (8-mer binding enrichment) (E-score (-0.5 to 0.5)); higher = stronger / more preferred TF binding
Conditions: protein concentration: 200 nM; construct: GST-full length
Outline: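 Detection of bound protein used fluorescent anti-GST, with scans normalised by masliner. The proteins were GST-tagged yeast transcription factors applied at about 100-200 nM to universal all-10-mer Agilent arrays made double-stranded by primer extension. Each ungapped eight-base word, pooled with its reverse complement, was scored with an E-score from the Universal PBM Analysis Suite.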

Sequence | PBM E-score
AGTTGAAA | -0.115
ATAGTAGG | 0.0397
AGGTTCAA | -0.0587
CTTCACAC | 0.23
TGGCACAA | -0.0301
ATAACTGA | 0.0287
GTTGAAAC | 0.0693
GGGCGGAC | -0.195
TACCTAAA | -0.0501
CTGTGCGC | -0.0791
CCATTAAC | 0.127
AGACTCTC | -0.195
GAGTAATA | 0.18
ACATTACT | -0.0384
CGAGATTA | 0.215
AAGAAGCC | -0.011
TCGTGGAA | 0.336
AATGGCGA | 0.185
ACACCGTG | 0.0786
CCGGTTGC | 0.13
GAGAGCGA | -0.0638
AATTCGTA | 0.307
CCTTTGCC | -0.0466
CACACATG | -0.151
GTGCTTTA | 0.142

Sequence | PBM E-score
ACATTAGA | 0.0369
CCTAATAG | 0.0821
CGTTGCAG | 0.205
GGTGTGAA | 0.144
CCAACCCG | -0.194
GGCTTGAA | 0.0631
CAAGATGG | -0.203
CCACTGCA | 0.0149
GGTTTTAA | -0.0516
AGACCCTG | -0.21
AACATGCA | -0.0478
CCTAGCTC | -0.114
TAATCGAA | 0.152
GCGAAAAA | 0.116
AGACGGCC | -0.0278
AAATGGGA | -0.142
CAAATTGG | 0.0993
AGGGGTTA | -0.299
GCCTTCAC | -0.0689
AGACCTAC | -0.0784
CATCTAAG | -0.118
CACTTTGG | -0.0212
TCGATAAA | 0.207
ACTACTAT | 0.205
GTCACACA | 0.0829

3 consecutive entries out of the list so far, for reference:
Sequence | PBM E-score
GCGAAAAA | 0.116
AGACGGCC | -0.0278
AAATGGGA | -0.142

Later entries:

Sequence | PBM E-score
CTGTCAAA | 0.11
ATAGGCAT | -0.194
CGTGGATC | 0.201
GATGGCGC | -0.00326
GACTCGAA | -0.0594
TAATTCAA | 0.198
ACGTAAGA | 0.207
AATCAACA | 0.224
CTTGAGCC | -0.29
GAGCTCTA | -0.103
CGCCTGGA | -0.0844
GCGAGTCC | -0.196
CTGTCGCC | -0.202
ATCGGGCC | -0.284
CCGTGCGA | 0.354
CTGAAAGA | 0.089
TCTAGACA | -0.0266
ACATCTAG | -0.069
CTTCATAC | 0.235
ATCAACAC | 0.223
AAGCAGAC | -0.202
AGTGGAAA | -0.124
GCCTTCGA | -0.206
GGCAATAC | 0.0605
CGAGACCG | -0.081

Sequence | PBM E-score
GATTTGCA | -0.0592
AACTCCTG | -0.177
AACCGATA | -0.00877
TATCTCAA | 0.229
ACCATGGC | 0.021
CTTATCCA | 0.0016
CCATCCCG | -0.112
AAAAGATA | 0.182
TCAACAGA | -0.063
CGCAGTGC | -0.191
AGCGAGAA | -0.0126
ACGTATCG | 0.212
ACGGCTCA | 0.226
ATACTAAC | 0.0585
CAGAAGCA | -0.146
ACGTGCTC | -0.221
CACGTAGG | 0.132
ACGTACTG | 0.101
CCCGGGCG | -0.0645
CTTATTAC | 0.174
ACCGTGCC | 0.0366
CGGAATTC | 0.00056
GATCACCC | 0.261
CGTGCACC | -0.147
ACTGCTGG | -0.18

Sequence | PBM E-score
ACCTACTG | -0.119
CTGCGAGA | -0.281
ATGTATTC | -0.0287
ACACCTGC | -0.203
TCCTGTAA | -0.0524
ACAATTCA | 0.00882
CTCGGCCA | -0.153
CTACCCAC | -0.106
AAAGTTTG | 0.0446
ACGAGTAA | 0.108
GCTCAGTA | -0.0985
CTTATAAC | 0.0537
ATACAGCG | -0.0382
ACCTAGAA | 0.118
ACCTTATA | 0.0987
CCAAACGG | -0.0255
GACCCGAC | -0.236
TATCATGA | 0.306
GCCTTCCA | -0.22
ATTTATAC | 0.224
AATTGGCC | -0.17
GGGGAGAA | -0.231
CGCCCCCC | -0.317
AGCCGGAC | -0.0562
CGCAGGTA | 0.034

Sequence | PBM E-score
CCGGTTAA | -0.0826
CGTTACTC | 0.0875
CCAATGTA | 0.0412
GCACGACC | 0.0772
CAAGTGTC | 0.036
AACCAGAG | -0.227
GTAAAGTA | 0.0846
CCTTAAGA | -0.0198
GAACAGAA | -0.05
ATTCCCTC | -0.128
AAGCGGGT | -0.0268
ACCTCCTA | -0.0283
CAGAATCG | 0.232
ATATAGAG | 0.0248
GACGGCAC | 0.048
GCAGGATA | -0.128
AGTTACAC | 0.0537
CGACATAC | 0.238
AGTTGGAT | 0.0882
CTGGTGGC | -0.202
CGCTAGTA | -0.057
GATGTCGC | 0.182
CTCATACC | 0.102
GATTGGGA | -0.197
GCTCAAAC | -0.0332

Some of the entries so far, as tab-separated lines:
Sequence	PBM E-score
CCAATGTA	0.0412
GCACGACC	0.0772
CAAGTGTC	0.036

Next records follow.

Sequence | PBM E-score
GCGAGCAC | -0.131
AGTCGCAT | -0.0565
ATTATGAA | 0.0891
AATCTCAG | -0.256
GCTTCACA | -0.144
ACTTCTTG | -0.0965
CGTTTTCA | 0.0747
GTGTTCGA | 0.0693
AAACGTCC | 0.0834
CCGCCCCG | -0.0814
ATAAAATA | 0.207
CGCTCACG | 0.0027
AAGTAGAT | -0.0127
ACGATGCG | 0.07
GCGGCTAC | -0.281
CGTCTACC | -0.05
ACTGCCTG | -0.124
ACGTGAAT | 0.21
AACGTACG | 0.222
GAACGGTA | 0.153
AGGTGGAC | -0.123
GTTCCGCA | -0.149
CGTGAATC | 0.201
GGTCCAGA | 0.0155
ATCTTGAC | 0.0128

Sequence | PBM E-score
AATTGGCA | 0.0539
AGGGGTTC | -0.264
CCAGTACA | -0.0881
GAGGCAGA | -0.167
CAATTAAC | 0.176
CCCGCCGG | -0.0977
ACGTAGTC | -0.025
CCGCGCAC | -0.209
AATCAAAA | -0.0563
AAATTAGT | 0.173
AAAAGCCG | -0.222
ACGCAGCC | -0.118
CCAGTGCC | 0.00571
AGCCGTAT | 0.161
GACCGGCC | -0.229
ATTTTGCA | 0.142
GCCGGCGA | -0.253
CCTATAAA | -0.134
CGGGAAAA | 0.0915
AGCGGAAG | -0.121
AGAGATAT | 0.0861
AATTTTCC | 0.125
GAGTGCAC | -0.126
AGTGAAGA | 0.129
GACAACAA | 0.166

Sequence | PBM E-score
CAGATTAG | -0.103
AAAGAACA | 0.0313
CTGTTGTA | -0.00395
TAACTTCA | 0.115
GGGAGCCC | -0.302
AACATTTA | 0.0911
AGCCATGA | 0.104
ATCGCTCA | 0.13
ATTCGATG | -0.0337
ATGACATA | 0.401
CCGACCGG | -0.168
CGATGCAA | -0.201
ATTTGAGC | 0.00156
ACAGCCCA | -0.108
CATAGGTA | -0.146
CAAGACGA | 0.0998
CTGGCGGC | -0.212
ACGTTGAT | 0.0436
AGTGTGCA | -0.0286

Pulled one by one from the entries so far:
Sequence | PBM E-score
ACGTTGAT | 0.0436
AGCCATGA | 0.104
GGGAGCCC | -0.302
ATTCGATG | -0.0337
CAGATTAG | -0.103
CGATGCAA | -0.201
